Sequences of proteins named here, by UniProt entry; tags and fusion partners are left off. A change or cut given only in a name is not applied to a line headed by its entry.
UniProt P23909: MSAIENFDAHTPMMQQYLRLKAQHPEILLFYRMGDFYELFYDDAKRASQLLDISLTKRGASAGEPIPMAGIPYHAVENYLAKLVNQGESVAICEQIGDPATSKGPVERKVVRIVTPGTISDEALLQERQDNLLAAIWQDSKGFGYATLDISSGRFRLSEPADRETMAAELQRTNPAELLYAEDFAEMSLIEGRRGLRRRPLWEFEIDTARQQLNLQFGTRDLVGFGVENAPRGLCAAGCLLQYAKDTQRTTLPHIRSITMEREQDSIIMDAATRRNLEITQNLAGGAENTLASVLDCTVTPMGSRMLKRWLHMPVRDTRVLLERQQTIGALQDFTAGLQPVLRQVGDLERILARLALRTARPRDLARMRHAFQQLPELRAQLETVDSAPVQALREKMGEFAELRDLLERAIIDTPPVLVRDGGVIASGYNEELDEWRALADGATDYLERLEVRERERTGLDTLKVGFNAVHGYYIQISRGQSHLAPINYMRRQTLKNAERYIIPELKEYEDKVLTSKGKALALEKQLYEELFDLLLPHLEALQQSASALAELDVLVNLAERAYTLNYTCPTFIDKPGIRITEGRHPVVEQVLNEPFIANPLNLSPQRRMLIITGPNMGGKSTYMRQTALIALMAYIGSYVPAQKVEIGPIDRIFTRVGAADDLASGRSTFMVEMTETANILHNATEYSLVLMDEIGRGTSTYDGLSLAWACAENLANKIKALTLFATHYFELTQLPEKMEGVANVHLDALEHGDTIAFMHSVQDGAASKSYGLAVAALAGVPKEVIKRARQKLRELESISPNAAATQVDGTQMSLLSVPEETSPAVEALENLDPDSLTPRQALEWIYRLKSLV

According to doi:10.1101/2021.10.21.465318:

What was measured:
EcMutS = EcMutS (UniProt P23909); test: SPR
HsMSH2 + HsMSH6 = test: SPR
[1] = 1 mM ATP, dissociates at least 10-fold faster than from blocked end

AAAGCTGGAGCTGAAGCTTAGCTTAGGATCATCGAGGATCGAGCTCGGTGCAATTCAGCGGTACCCAATTCGCCCTATAGTT / AACTATAGGGCGAATTGGGTACCGGTCAATTGCACCGAGCTTGATCCTCGATGATCCTAAGCTAAGCTTCAGCTCCAGCTTT [82-mer G/T open-end]
binding result (EcMutS; [1]): binds more weakly
Kd (EcMutS; no ATP, 10 mM Mg2+): 3 nM
binding result (HsMSH2 + HsMSH6; [1]): binds more weakly
Kd (HsMSH2 + HsMSH6; no ATP, 10 mM Mg2+): 0.7 nM

Construct, isoform or probe ends are uncertain for at least one entry. Weaker means in comparison with the reference protein, sequence or condition of that experiment.
